# Source: the supplement of paper PMC10849652
# Amino acid sequences for entries named in this document (tags omitted). A change or cut given only in a name is not applied to a line headed by its entry.
# UniProt Q8NCN2: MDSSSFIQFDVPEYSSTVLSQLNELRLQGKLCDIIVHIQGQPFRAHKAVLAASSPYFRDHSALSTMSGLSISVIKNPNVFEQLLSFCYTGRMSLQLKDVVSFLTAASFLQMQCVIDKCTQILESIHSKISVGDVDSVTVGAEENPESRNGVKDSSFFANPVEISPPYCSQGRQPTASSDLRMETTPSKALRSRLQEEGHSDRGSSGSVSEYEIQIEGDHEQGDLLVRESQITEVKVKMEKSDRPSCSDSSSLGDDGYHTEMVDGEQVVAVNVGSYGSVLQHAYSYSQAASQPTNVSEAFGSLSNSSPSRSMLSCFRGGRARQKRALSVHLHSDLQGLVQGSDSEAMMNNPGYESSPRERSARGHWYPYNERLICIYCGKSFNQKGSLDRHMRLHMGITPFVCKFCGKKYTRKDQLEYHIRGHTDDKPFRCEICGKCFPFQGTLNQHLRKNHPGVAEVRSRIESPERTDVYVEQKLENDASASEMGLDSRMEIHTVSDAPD
# UniProt P10074: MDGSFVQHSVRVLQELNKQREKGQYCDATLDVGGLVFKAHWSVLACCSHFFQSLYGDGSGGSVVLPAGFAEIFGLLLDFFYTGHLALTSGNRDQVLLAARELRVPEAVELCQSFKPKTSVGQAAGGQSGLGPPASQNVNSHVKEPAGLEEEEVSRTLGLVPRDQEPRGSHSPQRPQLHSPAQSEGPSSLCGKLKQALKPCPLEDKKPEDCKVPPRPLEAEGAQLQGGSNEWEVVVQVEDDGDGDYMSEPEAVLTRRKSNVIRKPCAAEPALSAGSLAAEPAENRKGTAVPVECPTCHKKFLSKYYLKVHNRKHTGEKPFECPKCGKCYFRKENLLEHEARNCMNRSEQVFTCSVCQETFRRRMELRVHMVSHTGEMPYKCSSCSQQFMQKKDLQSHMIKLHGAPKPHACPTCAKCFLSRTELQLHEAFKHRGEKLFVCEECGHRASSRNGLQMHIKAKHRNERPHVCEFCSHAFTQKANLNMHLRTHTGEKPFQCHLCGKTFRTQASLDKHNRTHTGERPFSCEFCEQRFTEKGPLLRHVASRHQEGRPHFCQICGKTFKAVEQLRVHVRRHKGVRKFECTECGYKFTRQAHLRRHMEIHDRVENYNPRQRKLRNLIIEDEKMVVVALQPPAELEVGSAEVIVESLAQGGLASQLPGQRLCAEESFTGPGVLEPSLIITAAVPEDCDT
# UniProt Q8IUH5: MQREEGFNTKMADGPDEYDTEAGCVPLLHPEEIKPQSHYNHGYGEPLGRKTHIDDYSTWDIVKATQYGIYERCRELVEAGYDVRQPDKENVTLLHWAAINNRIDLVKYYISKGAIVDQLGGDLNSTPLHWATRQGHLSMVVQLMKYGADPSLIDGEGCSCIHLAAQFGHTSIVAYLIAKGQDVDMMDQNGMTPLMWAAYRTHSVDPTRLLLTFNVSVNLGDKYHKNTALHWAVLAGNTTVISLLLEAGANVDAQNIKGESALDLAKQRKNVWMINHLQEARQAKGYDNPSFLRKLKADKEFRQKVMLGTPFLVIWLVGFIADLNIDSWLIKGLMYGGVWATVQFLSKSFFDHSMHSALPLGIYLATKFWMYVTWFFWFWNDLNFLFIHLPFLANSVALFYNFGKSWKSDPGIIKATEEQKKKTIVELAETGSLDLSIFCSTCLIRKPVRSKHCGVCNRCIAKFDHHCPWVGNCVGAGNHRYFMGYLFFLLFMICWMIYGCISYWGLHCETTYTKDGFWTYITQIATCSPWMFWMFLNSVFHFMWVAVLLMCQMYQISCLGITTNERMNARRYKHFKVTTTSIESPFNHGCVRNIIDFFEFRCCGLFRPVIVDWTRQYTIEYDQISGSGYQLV
# UniProt Q8TBK6: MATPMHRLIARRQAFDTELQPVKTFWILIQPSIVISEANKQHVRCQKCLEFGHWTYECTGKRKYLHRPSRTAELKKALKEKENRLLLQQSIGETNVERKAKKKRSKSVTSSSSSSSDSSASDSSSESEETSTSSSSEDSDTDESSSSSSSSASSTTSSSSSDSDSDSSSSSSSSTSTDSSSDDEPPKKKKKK
# UniProt Q49AG3: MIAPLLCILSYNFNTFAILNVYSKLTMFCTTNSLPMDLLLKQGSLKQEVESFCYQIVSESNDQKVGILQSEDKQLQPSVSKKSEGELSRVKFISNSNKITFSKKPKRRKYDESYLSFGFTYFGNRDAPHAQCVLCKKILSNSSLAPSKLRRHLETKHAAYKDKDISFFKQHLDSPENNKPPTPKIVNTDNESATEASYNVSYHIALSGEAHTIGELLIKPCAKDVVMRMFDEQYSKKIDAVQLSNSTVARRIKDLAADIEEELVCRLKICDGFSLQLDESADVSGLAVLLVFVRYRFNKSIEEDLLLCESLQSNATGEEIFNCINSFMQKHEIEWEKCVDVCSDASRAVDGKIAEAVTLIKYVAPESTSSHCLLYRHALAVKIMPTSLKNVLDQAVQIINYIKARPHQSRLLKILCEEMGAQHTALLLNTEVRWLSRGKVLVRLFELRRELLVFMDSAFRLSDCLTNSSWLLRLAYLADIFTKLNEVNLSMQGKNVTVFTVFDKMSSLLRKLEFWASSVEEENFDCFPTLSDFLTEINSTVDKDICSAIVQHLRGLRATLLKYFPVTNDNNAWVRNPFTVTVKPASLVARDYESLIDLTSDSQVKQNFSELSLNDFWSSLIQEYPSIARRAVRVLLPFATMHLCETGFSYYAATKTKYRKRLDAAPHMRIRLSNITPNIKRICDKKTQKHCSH
# UniProt O75132: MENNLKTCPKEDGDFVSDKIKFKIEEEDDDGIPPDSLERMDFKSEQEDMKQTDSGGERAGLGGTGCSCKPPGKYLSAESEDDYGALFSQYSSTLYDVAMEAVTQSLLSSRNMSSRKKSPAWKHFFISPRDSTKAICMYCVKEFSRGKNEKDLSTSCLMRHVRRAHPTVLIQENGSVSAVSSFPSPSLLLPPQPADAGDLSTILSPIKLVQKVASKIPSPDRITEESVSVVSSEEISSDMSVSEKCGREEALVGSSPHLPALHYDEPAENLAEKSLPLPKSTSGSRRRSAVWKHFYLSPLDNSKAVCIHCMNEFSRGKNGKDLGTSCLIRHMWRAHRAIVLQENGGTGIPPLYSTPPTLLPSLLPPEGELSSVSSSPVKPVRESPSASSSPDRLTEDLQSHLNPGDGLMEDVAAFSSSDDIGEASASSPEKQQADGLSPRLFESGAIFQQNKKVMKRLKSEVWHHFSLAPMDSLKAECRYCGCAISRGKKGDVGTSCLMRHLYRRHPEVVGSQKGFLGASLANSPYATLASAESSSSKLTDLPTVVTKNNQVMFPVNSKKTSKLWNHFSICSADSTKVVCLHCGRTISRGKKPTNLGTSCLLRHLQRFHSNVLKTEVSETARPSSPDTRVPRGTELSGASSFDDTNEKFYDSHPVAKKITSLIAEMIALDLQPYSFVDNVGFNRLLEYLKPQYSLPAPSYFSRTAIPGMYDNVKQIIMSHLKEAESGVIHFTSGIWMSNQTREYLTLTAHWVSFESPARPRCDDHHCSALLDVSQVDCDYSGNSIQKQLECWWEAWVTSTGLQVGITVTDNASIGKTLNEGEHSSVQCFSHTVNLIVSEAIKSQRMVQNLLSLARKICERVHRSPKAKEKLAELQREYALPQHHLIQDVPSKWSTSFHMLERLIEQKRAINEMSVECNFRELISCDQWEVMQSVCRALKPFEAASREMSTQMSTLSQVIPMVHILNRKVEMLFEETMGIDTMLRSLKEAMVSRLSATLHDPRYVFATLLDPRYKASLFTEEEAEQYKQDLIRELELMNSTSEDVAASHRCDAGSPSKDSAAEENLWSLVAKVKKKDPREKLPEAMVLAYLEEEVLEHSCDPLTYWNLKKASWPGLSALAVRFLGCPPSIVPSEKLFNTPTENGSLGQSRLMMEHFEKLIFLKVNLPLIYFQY
# UniProt Q9Y2K1: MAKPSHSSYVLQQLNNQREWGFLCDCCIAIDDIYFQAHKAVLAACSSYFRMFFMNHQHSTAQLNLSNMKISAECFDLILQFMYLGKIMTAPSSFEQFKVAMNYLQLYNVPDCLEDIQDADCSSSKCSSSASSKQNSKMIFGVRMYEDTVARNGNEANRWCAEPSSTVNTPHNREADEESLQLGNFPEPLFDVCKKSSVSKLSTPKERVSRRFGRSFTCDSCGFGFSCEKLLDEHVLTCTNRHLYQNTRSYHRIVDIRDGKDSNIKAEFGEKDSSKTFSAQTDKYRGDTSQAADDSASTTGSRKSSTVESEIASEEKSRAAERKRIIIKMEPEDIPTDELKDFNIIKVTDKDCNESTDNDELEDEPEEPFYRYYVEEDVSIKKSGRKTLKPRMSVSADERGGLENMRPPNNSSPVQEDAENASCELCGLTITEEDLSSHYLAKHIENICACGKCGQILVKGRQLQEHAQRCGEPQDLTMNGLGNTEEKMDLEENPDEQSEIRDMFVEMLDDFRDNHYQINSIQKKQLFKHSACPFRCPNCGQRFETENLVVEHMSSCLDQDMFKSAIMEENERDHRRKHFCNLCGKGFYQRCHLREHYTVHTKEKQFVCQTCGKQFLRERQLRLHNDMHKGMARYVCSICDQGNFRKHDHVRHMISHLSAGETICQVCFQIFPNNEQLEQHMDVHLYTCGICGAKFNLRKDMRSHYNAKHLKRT
# UniProt Q9HBF4: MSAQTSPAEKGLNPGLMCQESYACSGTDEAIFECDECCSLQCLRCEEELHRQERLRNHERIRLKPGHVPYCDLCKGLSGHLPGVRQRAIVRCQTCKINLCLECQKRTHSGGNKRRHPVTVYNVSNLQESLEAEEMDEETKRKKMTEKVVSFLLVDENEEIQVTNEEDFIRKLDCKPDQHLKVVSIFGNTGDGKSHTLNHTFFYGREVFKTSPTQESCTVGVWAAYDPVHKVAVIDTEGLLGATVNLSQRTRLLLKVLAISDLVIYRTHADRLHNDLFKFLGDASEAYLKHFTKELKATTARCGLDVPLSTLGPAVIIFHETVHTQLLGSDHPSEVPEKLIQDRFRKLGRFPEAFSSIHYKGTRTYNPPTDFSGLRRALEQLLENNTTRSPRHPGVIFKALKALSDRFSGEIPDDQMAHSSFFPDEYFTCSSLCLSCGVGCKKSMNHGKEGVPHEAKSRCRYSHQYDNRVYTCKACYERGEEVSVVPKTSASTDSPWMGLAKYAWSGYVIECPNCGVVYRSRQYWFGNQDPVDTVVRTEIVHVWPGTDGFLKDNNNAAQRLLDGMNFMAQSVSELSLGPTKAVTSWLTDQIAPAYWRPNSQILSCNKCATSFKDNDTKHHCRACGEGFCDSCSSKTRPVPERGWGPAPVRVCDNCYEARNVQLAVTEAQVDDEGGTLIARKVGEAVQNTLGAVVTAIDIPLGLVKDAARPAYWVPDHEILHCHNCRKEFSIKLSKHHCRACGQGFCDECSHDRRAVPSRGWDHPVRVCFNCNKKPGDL
# UniProt Q9H5U6: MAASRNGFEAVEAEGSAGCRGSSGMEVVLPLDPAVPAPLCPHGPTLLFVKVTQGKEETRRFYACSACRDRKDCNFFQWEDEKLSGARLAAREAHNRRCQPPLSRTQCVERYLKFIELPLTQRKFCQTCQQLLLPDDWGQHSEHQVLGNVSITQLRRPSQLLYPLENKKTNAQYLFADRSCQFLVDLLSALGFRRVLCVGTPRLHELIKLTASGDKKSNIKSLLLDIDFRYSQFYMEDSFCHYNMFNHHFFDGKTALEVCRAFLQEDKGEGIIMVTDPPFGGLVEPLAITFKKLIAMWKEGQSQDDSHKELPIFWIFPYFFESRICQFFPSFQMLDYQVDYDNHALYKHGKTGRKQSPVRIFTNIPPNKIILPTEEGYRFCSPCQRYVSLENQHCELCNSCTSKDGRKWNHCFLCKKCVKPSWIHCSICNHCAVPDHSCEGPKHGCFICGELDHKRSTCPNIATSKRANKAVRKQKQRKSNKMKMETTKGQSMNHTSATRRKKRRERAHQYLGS
# UniProt Q9NPG8: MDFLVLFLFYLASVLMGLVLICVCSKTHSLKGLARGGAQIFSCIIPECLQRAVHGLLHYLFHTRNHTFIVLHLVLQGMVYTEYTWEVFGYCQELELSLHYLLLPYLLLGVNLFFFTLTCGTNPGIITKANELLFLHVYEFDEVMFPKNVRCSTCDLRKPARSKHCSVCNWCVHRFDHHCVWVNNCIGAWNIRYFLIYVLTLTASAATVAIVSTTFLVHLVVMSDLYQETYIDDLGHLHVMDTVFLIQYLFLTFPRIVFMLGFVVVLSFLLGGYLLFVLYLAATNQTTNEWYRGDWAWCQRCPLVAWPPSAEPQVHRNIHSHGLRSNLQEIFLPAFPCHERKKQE
# UniProt Q9UIJ5: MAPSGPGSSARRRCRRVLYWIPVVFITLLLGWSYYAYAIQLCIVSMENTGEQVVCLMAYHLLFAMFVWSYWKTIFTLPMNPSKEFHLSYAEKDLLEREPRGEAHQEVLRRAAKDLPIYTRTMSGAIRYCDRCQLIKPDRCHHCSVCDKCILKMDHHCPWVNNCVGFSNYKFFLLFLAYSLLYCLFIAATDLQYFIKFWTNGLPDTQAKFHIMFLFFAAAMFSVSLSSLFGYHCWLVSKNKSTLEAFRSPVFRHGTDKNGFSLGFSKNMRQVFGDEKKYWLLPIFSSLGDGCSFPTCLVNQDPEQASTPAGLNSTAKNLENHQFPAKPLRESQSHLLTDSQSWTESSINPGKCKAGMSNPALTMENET
# The other results are listed elsewhere or left out.
# Experiments:
# Experiment in all cases: log2 fold change, soluble protein after heating vs DMSO (PISA); higher = thermal stabilisation; K562 lysate, 10 uM; active = over 0.2 and 3.5 SD of the protein, either way, in both replicates (recomputed)
# [1] = compound: CC1=C2C(=CC=C1)N=C(N(C2=O)C3=CC=CC=C3C)CN4C=NC5=C(N=CN=C54)N
# Method in brief: (§1)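 Quantification was by TMTpro 16plex LC-MS/MS with equalised channel sums, applied to the supernatant after 21,000xg for 90 min. Samples were crude K562 extract at 1 mg/mL protein in PBS pH 7.4 with 1 mM MgCl2, treated with 10 μM compound for 30 min, heated for 3 min across 48°C-58°C, pooled and brought to 0.5% NP-40 at 4°C. Values are log-two fold changes in thermal stability relative to solvent controls, from duplicates.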
# [2] = compound: Cc1sc2c(c1C)C(c1ccc(Cl)cc1)=N[C@@H](CC(=O)OC(C)(C)C)c1nnc(C)n1-2
# Method in brief: as §1
# [3] = compound: c1ccc([C@@H]2C[C@H]2NC2CCNCC2)cc1
# Method in brief: as §1
# [4] = compound: C1=CC=C(C=C1)[C@H](COC2=CC3=C(C=C2)NC(=O)N3)NC(=O)C4=CC=CN(C4=O)CC5=CC(=C(C=C5)F)F
# Method in brief: as §1
# [5] = compound: CC1=C(SC2=C1C(=N[C@H](C3=NN=C(N32)C)CC(=O)N)C4=CC=C(C=C4)Cl)C
# Method in brief: as §1
target,measurement,setting,value
ZDHHC14 (UniProt Q8IZN3),log2 fold change,[1],inactive: 0.086
same,log2 fold change,[2],inactive: 0
same,log2 fold change,[3],inactive: -0.104
ZDHHC8 isoform 3 (UniProt Q9ULC8),log2 fold change,[3],inactive: -0.131
YBEY (UniProt P58557),log2 fold change,[1],inactive: 0.046
same,log2 fold change,[2],inactive: -0.016
ZBTB43 (UniProt O43298),log2 fold change,[1],inactive: -0.022
same,log2 fold change,[2],inactive: 0.073
ZBTB34 (UniProt Q8NCN2),log2 fold change,[4],inactive: 0.173
same,log2 fold change,[5],inactive: -0.133
same,log2 fold change,[2],inactive: 0.121
ZFX isoform 3 (UniProt P17010),log2 fold change,[2],inactive: 0.03
ZBTB48 (UniProt P10074),log2 fold change,[1],inactive: 0.059
same,log2 fold change,[2],inactive: -0.038
ZDHHC17 (UniProt Q8IUH5),log2 fold change,[1],inactive: 0.057
same,log2 fold change,[2],inactive: -0.181
same,log2 fold change,[3],inactive: -0.578
ZCCHC10 (UniProt Q8TBK6),log2 fold change,[4],inactive: -0.017
same,log2 fold change,[5],inactive: -0.188
same,log2 fold change,[2],inactive: -0.252
ZBTB39 (UniProt O15060),log2 fold change,[2],inactive: 0.118
ZBED5 (UniProt Q49AG3),log2 fold change,[2],inactive: 0.168
ZC3H3 (UniProt Q8IXZ2),log2 fold change,[3],inactive: -0.2
YY1AP1 isoform 9 (UniProt Q9H869),log2 fold change,[2],inactive: 0.109
same,log2 fold change,[3],inactive: 0.193
ZFAND1 (UniProt Q8TCF1),log2 fold change,[4],inactive: 0.02
same,log2 fold change,[5],inactive: -0.109
same,log2 fold change,[2],inactive: 0.057
same,log2 fold change,[3],inactive: 0.279
XRCC2 (UniProt O43543),log2 fold change,[4],inactive: -0.086
same,log2 fold change,[5],inactive: -0.017
same,log2 fold change,[2],inactive: -0.075
same,log2 fold change,[3],inactive: -0.045
ZBED6 (UniProt P86452),log2 fold change,[2],inactive: -0.114
ZBED4 (UniProt O75132),log2 fold change,[1],inactive: -0.117
ZC3H12C isoform 2 (UniProt Q9C0D7),log2 fold change,[4],inactive: -0.126
same,log2 fold change,[5],inactive: 0
same,log2 fold change,[2],inactive: 0.417
same,log2 fold change,[3],inactive: 0.077
ZBTB5 (UniProt O15062),log2 fold change,[1],inactive: -0.038
same,log2 fold change,[2],inactive: -0.019
ZCRB1 (UniProt Q8TBF4),log2 fold change,[2],inactive: -0.019
same,log2 fold change,[3],inactive: 0.021
ZBTB1 (UniProt Q9Y2K1),log2 fold change,[4],inactive: -0.125
same,log2 fold change,[5],inactive: 0.159
same,log2 fold change,[3],inactive: -0.04
ZFYVE1 (UniProt Q9HBF4),log2 fold change,[4],inactive: -0.224
same,log2 fold change,[5],inactive: -0.011
same,log2 fold change,[2],inactive: 0.079
same,log2 fold change,[3],inactive: 0.232
ZCCHC4 (UniProt Q9H5U6),log2 fold change,[1],inactive: 0.153
same,log2 fold change,[2],inactive: 0.007
same,log2 fold change,[3],inactive: 0.029
YIPF1 (UniProt Q9Y548),log2 fold change,[4],inactive: 0.024
same,log2 fold change,[5],inactive: -0.019
same,log2 fold change,[2],inactive: 0.06
ZDHHC4 (UniProt Q9NPG8),log2 fold change,[4],inactive: 0.026
same,log2 fold change,[5],inactive: -0.01
same,log2 fold change,[2],inactive: 0.141
same,log2 fold change,[3],inactive: -0.116
ZFP64 isoform 5 (UniProt Q9NTW7),log2 fold change,[4],inactive: -0.109
same,log2 fold change,[5],inactive: 0.127
same,log2 fold change,[3],inactive: -0.05
ZDHHC9 (UniProt Q9Y397),log2 fold change,[3],inactive: 0.024
ZDHHC2 (UniProt Q9UIJ5),log2 fold change,[3],inactive: -0.084
ZBTB14 (UniProt O43829),log2 fold change,[4],inactive: 0.084
same,log2 fold change,[5],inactive: -0.106
same,log2 fold change,[2],inactive: -0.027
same,log2 fold change,[3],inactive: 0.015
ZC3H12A (UniProt Q5D1E8),log2 fold change,[2],inactive: 0.016
ZBTB24 (UniProt O43167),log2 fold change,[4],inactive: 0.061
same,log2 fold change,[5],inactive: 0.108
same,log2 fold change,[2],inactive: 0.01
same,log2 fold change,[3],inactive: -0.072
YBX1 (UniProt C9J5V9),log2 fold change,[3],inactive: 0.129

# Taken from the listing for reference:
target,measurement,setting,value
ZFP64 isoform 5 (UniProt Q9NTW7),log2 fold change,[4],inactive: -0.109
same,log2 fold change,[5],inactive: 0.127
same,log2 fold change,[3],inactive: -0.05
